Results published in publication PMC3080859.

Molecular target: T1, RCN1-YFP fusion protein (A. thaliana) (UniProt Q38845)
T1 sequence: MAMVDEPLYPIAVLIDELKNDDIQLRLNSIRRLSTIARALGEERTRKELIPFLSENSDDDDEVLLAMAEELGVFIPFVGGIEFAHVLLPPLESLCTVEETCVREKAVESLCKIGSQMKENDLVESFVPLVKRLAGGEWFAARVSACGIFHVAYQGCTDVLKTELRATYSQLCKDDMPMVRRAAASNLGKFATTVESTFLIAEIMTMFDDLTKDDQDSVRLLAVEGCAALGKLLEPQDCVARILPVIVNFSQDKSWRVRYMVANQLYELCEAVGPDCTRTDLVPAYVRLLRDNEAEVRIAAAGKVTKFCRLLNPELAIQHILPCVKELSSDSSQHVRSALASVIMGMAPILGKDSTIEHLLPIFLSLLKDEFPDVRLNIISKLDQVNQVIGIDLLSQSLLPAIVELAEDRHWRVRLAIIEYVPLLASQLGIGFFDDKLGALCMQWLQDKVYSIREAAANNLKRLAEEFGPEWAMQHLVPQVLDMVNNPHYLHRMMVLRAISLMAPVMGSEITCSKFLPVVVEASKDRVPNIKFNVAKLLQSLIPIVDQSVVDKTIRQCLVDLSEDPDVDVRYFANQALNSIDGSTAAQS
Experiment: co-IP; anti-GFP antibody + Protein A agarose (or Protein A agarose alone) on extracts of dark-grown RCN1-YFP seedlings; co-IP buffer, 1 hour at 4°C, washed twice; immunoblot with anti-RCN1 and anti-C subunit antisera

binding: binds
Substance: PP2A C subunit (A. thaliana (endogenous in seedlings)) (enzyme)

These are yes or no findings as the source states them, for the method shown. Binding seen in cells or lysates may run through a third protein. A result given as binding can be weak or reduced; the word gives no strength. Tags and fused reporters may be left off the sequences shown.
